According to paper PMC2868067 (Molecular cancer therapeutics, 2010):

Tested on: kinases in the Src family
Conditions: read-out: apparent IC50, Srctide; multiplexed, treated K-562 lysates (Figure 6A)

IC50: 5.6 µM
SMILES: Cc1ccc(NC(=O)c2ccc(CN3CCN(C)CC3)cc2)cc1Nc1nccc(-c2cccnc2)n1 [imatinib]
